Results reported in article PMC7819943, “Rice protein-binding microarrays: a tool to detect cis-acting elements near promoter regions in rice”.
This is one part of the list.

Chains of the proteins cited; added tags and fusions are not shown.
UniProt Q0JBA9, entry or part of it: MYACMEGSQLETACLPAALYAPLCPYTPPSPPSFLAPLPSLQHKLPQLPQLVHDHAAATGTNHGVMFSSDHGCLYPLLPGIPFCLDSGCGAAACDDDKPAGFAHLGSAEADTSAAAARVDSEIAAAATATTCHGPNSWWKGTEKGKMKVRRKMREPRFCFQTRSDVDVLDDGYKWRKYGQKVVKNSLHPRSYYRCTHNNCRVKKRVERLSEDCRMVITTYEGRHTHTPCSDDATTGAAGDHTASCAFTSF

target: OsWRKY34 (Oryza sativa, UniProt Q0JBA9 1-250); test: protein-binding microarray (RPBM); PBS, 2% BSA, 51.3 ng/ul salmon testes DNA, 50 uM zinc acetate, 200 nM TF, 25 C, 1 h; high values mean tight binding; conditions: protein: recombinant; tags: N-terminal polyhistidine and DsRed monomer fusion (pET32a); label: CyDye5-dUTP incorporated in the synthesized complementary strand; 3' TTTTT single-stranded linker to array surface; dsDNA, one strand shown
How it was run: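 For the binding signal, per-feature fluorescence intensity was read in arbitrary units on an Axon 4000B scanner. Before scanning, a 2% BSA-blocked custom Agilent array made double-stranded with Cy5-dUTP was washed after 1 h at 25 °C with 200 nM protein and 50 µM zinc acetate. The proteins were Ni–NTA-purified transcription factors with N-terminal polyhistidine and DsRed fusions, expressed in E. coli BL21-CodonPlus.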

Sequence | binding signal
TTTCGTTTCCGTTTCTTGCGCCTCCTCCAACCGCGGCGGCCGGAGTCACCTAGTGCAG | 9210 fluorescence intensity (a.u.)
GCCGCGCACGCCGTCATCTCTTTTTCGTTCCATACTTCTCCGGAGTCACCTAGTGCAG | 10700 fluorescence intensity (a.u.)
TCCGCCACCACCGTCGCTCGATCCGTCGCCGCTGTCTCGACGGAGTCACCTAGTGCAG | 10400 fluorescence intensity (a.u.)
TCCCCGACAGATCGATCCAATTCGCATCATCGCATCACACCGGAGTCACCTAGTGCAG | 8930 fluorescence intensity (a.u.)
TTCTTTCGTAAGATCTTTGTGCTCTCTTGGCCTAGTGTTACGGAGTCACCTAGTGCAG | 10500 fluorescence intensity (a.u.)
TTTACTCTTTTACATGCTGGGATTATCTCTTCTTCACCTGCGGAGTCACCTAGTGCAG | 8230 fluorescence intensity (a.u.)
ATTGTTCTTCAGATTGCTTTCGTTCTTTAAACAAATCTTCCGGAGTCACCTAGTGCAG | 10300 fluorescence intensity (a.u.)
ATGCATGCCATCATCGGAATCAAACATTCTGCATTTCTCTCGGAGTCACCTAGTGCAG | 8390 fluorescence intensity (a.u.)
GCTCCCGTAACCGCGCCGCCGCAGCCTCCGCCTCCGCGCGCGGAGTCACCTAGTGCAG | 10100 fluorescence intensity (a.u.)
TTCATAGTTCTGAAGTTGCTATTTTTTGTGTTCCAACCTTCGGAGTCACCTAGTGCAG | 10600 fluorescence intensity (a.u.)
AATCCTCCATGACTCGAGTCTCTCCTCGGATTAGGATCTACGGAGTCACCTAGTGCAG | 9360 fluorescence intensity (a.u.)
CAGTGAACTTATTCCTCACGTGAACCGGTCTTAGATTTCGCGGAGTCACCTAGTGCAG | 9680 fluorescence intensity (a.u.)
GTACTGCCATTAATCCCGATTTGTCCTTATTTATCTGTTTCGGAGTCACCTAGTGCAG | 11600 fluorescence intensity (a.u.)
GTGTGCTTATTCTTGTCCGTATTGTCATTGACTTGTCAACCGGAGTCACCTAGTGCAG | 8890 fluorescence intensity (a.u.)
ATGCGTGCGCTCAGCCCATTCTGCTTGTATTTTCAGTACACGGAGTCACCTAGTGCAG | 11300 fluorescence intensity (a.u.)
TTCCTATCAGAATCCTATATTTTTCCTATTCCTCTGTTTTCGGAGTCACCTAGTGCAG | 8060 fluorescence intensity (a.u.)
AGCTTCACTTGTGCTCCACTGCAACCAGTACACCACATTACGGAGTCACCTAGTGCAG | 10400 fluorescence intensity (a.u.)
TTTTCCTTTCACTTTTGTTTTTGTTTTTCATGTAGTATGACGGAGTCACCTAGTGCAG | 10100 fluorescence intensity (a.u.)
GGGTGCATTTTTCTCCCTTCCTCATGATAAGCTGGGCCTTCGGAGTCACCTAGTGCAG | 8130 fluorescence intensity (a.u.)
AACATGCCGACACTGTAAGCTACTATATAAGTTTCTCCAACGGAGTCACCTAGTGCAG | 8730 fluorescence intensity (a.u.)
AATTTGCTTATTATGCCTTGTTAGGTTCATTCTTTGAATACGGAGTCACCTAGTGCAG | 8940 fluorescence intensity (a.u.)

Sequence | binding signal
AGTTTGACCTTTTCATGTCATGAATTTTTTTTAAAAAAATCGGAGTCACCTAGTGCAG | 9400 fluorescence intensity (a.u.)
CGCTATCACCGTGCGACACCGTGCGGTCTCACGCTGTCATCGGAGTCACCTAGTGCAG | 9510 fluorescence intensity (a.u.)
GCTCACTCACTCTGCTGGCAGCTTCCCCTAGGTTGTCCTTCGGAGTCACCTAGTGCAG | 13500 fluorescence intensity (a.u.)
CTGTTTGCGCCATACTCTTGTTTGTGCACTAGATCTTCTTCGGAGTCACCTAGTGCAG | 10800 fluorescence intensity (a.u.)
GGCACCGGTCAGATCAGTTTGACTCCGTTTCCGTCCCCACCGGAGTCACCTAGTGCAG | 11200 fluorescence intensity (a.u.)
CGCGATCCGCCTCCGCCTCGAGCCCAAACCCACCCACCAACGGAGTCACCTAGTGCAG | 8300 fluorescence intensity (a.u.)
ACTTCTTCTACGTGATTTCCTGATTCGCCTCATCCGCTTCCGGAGTCACCTAGTGCAG | 9060 fluorescence intensity (a.u.)
ATCGTCATAGTCTTCGTCAGACTTCTATCTCGATCGCTTTCGGAGTCACCTAGTGCAG | 11700 fluorescence intensity (a.u.)
GCTTTGAGTGTGACTACAGTGTCTGCTACTCCTACTACTCCGGAGTCACCTAGTGCAG | 10400 fluorescence intensity (a.u.)
CCGTATACGTCAAACTTTTTTTTTTTTGCCAAAACATCTACGGAGTCACCTAGTGCAG | 8530 fluorescence intensity (a.u.)
GTCATCTTTGTTTGAGTCGGTTTTTAATTTTGTTTGCTTTCGGAGTCACCTAGTGCAG | 17700 fluorescence intensity (a.u.)
CGGCGCCTCCTCGCCCTCGCGCCGCCCGCCGTGTGCCATGCGGAGTCACCTAGTGCAG | 8940 fluorescence intensity (a.u.)
TACTAATTTCCTTCGCACATCCAGCAATCAGATATCCTGACGGAGTCACCTAGTGCAG | 9760 fluorescence intensity (a.u.)
CGTCACTTTTTTTTCTCCCCTATTTCTTTTCTCCTTTTCTCGGAGTCACCTAGTGCAG | 10900 fluorescence intensity (a.u.)
CCGCACCGTATCCTGCCCAATCTCGTTCACCCCTTCACGACGGAGTCACCTAGTGCAG | 11300 fluorescence intensity (a.u.)
TGTGAGGTGGGGTCGGGGTGGAAGTGGGTGAGGAGGGGTGCGGAGTCACCTAGTGCAG | 21700 fluorescence intensity (a.u.)
TTACTTCAGGTTGGGTTTGCTGCTGTCGATGTGCTTATCTCGGAGTCACCTAGTGCAG | 12500 fluorescence intensity (a.u.)
CAGCTCAATATTTTTGTACTTCATTTATTCTGCTTTAAACCGGAGTCACCTAGTGCAG | 9540 fluorescence intensity (a.u.)
TACCTCTTGATGCTTATCTGGTTTGTTTTTTTTCCTTTTCCGGAGTCACCTAGTGCAG | 8140 fluorescence intensity (a.u.)
TTGAACCCTGCTCTCAGCTGAGCACCATGCAATAACTGTCCGGAGTCACCTAGTGCAG | 8270 fluorescence intensity (a.u.)
GGGGCTGTTTGGTTTCCAGGGACTTATTCCAAGTCCCTGTCGGAGTCACCTAGTGCAG | 9750 fluorescence intensity (a.u.)

No new results follow: entries from further up.
Sequence | binding signal
GGCACCGGTCAGATCAGTTTGACTCCGTTTCCGTCCCCACCGGAGTCACCTAGTGCAG | 11200 fluorescence intensity (a.u.)
CGCGATCCGCCTCCGCCTCGAGCCCAAACCCACCCACCAACGGAGTCACCTAGTGCAG | 8300 fluorescence intensity (a.u.)
ACTTCTTCTACGTGATTTCCTGATTCGCCTCATCCGCTTCCGGAGTCACCTAGTGCAG | 9060 fluorescence intensity (a.u.)
ATCGTCATAGTCTTCGTCAGACTTCTATCTCGATCGCTTTCGGAGTCACCTAGTGCAG | 11700 fluorescence intensity (a.u.)
GCTTTGAGTGTGACTACAGTGTCTGCTACTCCTACTACTCCGGAGTCACCTAGTGCAG | 10400 fluorescence intensity (a.u.)
CCGTATACGTCAAACTTTTTTTTTTTTGCCAAAACATCTACGGAGTCACCTAGTGCAG | 8530 fluorescence intensity (a.u.)

Laid out differently: results already given
Sequence	binding signal
ATCGTCATAGTCTTCGTCAGACTTCTATCTCGATCGCTTTCGGAGTCACCTAGTGCAG	11700 fluorescence intensity (a.u.)
GCTTTGAGTGTGACTACAGTGTCTGCTACTCCTACTACTCCGGAGTCACCTAGTGCAG	10400 fluorescence intensity (a.u.)

(listing goes on)

Sequence | binding signal
CTACTCTACTGACTTGCACATGTACTGTACGTTCTCTTTGCGGAGTCACCTAGTGCAG | 9050 fluorescence intensity (a.u.)
GCACGCTGTTGCAGTGCTCTGCGCCTCTGCATCTCCTTCTCGGAGTCACCTAGTGCAG | 8230 fluorescence intensity (a.u.)
CTCTGTTCACCAGTCCGTCGGTTCGATCGGCGATCAAACTCGGAGTCACCTAGTGCAG | 8510 fluorescence intensity (a.u.)
TGACTTATATGATTATGTTTTATGTTGAATTATTGACCGTCGGAGTCACCTAGTGCAG | 8200 fluorescence intensity (a.u.)
ATTCTCTGTTTTACACTTATATTCCTGTCAGAATTCTATACGGAGTCACCTAGTGCAG | 10200 fluorescence intensity (a.u.)
TCTTCTTATAAACCCTAACTCCAGTAACATTTTAAGCTTTCGGAGTCACCTAGTGCAG | 8840 fluorescence intensity (a.u.)
CCATGCTCGCGGCGTTTACTTTCCTCACTATTTTTTAGATCGGAGTCACCTAGTGCAG | 9410 fluorescence intensity (a.u.)
CCGCCCCGGACCCGTCGCCAAACCCTGCCGCCGAGCACTCCGGAGTCACCTAGTGCAG | 9020 fluorescence intensity (a.u.)
CCAACCCACTCCCGTCATCGCCACCTCATCCACAGCCATGCGGAGTCACCTAGTGCAG | 8840 fluorescence intensity (a.u.)
CCCCTGCCTGCCTGCCGTCCCACACGGGCACGCCGCGGCGCGGAGTCACCTAGTGCAG | 11900 fluorescence intensity (a.u.)
GGTGGGATCCTCTGCGGCCTCGTATTTCTATCTGCTTAACCGGAGTCACCTAGTGCAG | 8710 fluorescence intensity (a.u.)
TTCACCTTGCTCCTCTCTCTCTCTCTCTCTCCTTAATTCTCGGAGTCACCTAGTGCAG | 8090 fluorescence intensity (a.u.)
GCCATCGCGTACTACACTACACTACACAGTTTGTACCGCGCGGAGTCACCTAGTGCAG | 9140 fluorescence intensity (a.u.)
GCACGCGCCACACCGGTCCCAAACCTTCCCAACGCGCGCGCGGAGTCACCTAGTGCAG | 8770 fluorescence intensity (a.u.)
GCCACGCCTCCTATATCCACGCTGCCCAGCGGCGCCCACCCGGAGTCACCTAGTGCAG | 8250 fluorescence intensity (a.u.)
CGATGTGATTTAGTGAAAAATTTTAGGGTGGGCTAAACAGCGGAGTCACCTAGTGCAG | 11500 fluorescence intensity (a.u.)
ACTCTTCTACTGCTCCACTCTGCTCTGCTCGCCGCTCCCACGGAGTCACCTAGTGCAG | 15100 fluorescence intensity (a.u.)
GAGAGGGGATAAGGTATTCGTTTTGTTTGTATGCATGTGACGGAGTCACCTAGTGCAG | 14300 fluorescence intensity (a.u.)
ACCATGACCGCATCCCTCTACTAAAGTTTAATTGTACTCTCGGAGTCACCTAGTGCAG | 8540 fluorescence intensity (a.u.)
GCGTCACCATCATGCCCAAGGACATCCAGCTCGCCCGCCGCGGAGTCACCTAGTGCAG | 9100 fluorescence intensity (a.u.)
CTTACCATTGTGTTTTGCTCTCATGATCGTATTTGTTCACCGGAGTCACCTAGTGCAG | 11300 fluorescence intensity (a.u.)

Sequence | binding signal
ATGTGTGTGTGCTATTTCTCTACGCTTTGCAGGCAACTAGCGGAGTCACCTAGTGCAG | 8330 fluorescence intensity (a.u.)
ATGTTGGGCCAGGCTCGAGCTCCTCCTCCTCCGCGTCGTCCGGAGTCACCTAGTGCAG | 8140 fluorescence intensity (a.u.)
GAGTATATGACAGTTGCCGTGTGCTCTTTGATTCGTTTGACGGAGTCACCTAGTGCAG | 9970 fluorescence intensity (a.u.)
TTGGTCGATCCTTCTTGTTTAATCTGCCTGTGCCTTGATCCGGAGTCACCTAGTGCAG | 8280 fluorescence intensity (a.u.)
GCCATCAACTATAGGGAACATGTCTTCCCTCAACTATATACGGAGTCACCTAGTGCAG | 8360 fluorescence intensity (a.u.)
TGTAAGCTTATGTGTCATCTTTCTTTGTTTGTGAAGAACCCGGAGTCACCTAGTGCAG | 8190 fluorescence intensity (a.u.)
CTTCGCCGATCTATCTCCGTCCATCCTCCGCTCGCCGTCGCGGAGTCACCTAGTGCAG | 8080 fluorescence intensity (a.u.)
CTTACTCTCCCATTGACTTTCAATCCCAATGTAACCAGCTCGGAGTCACCTAGTGCAG | 9380 fluorescence intensity (a.u.)
CTCGCATCCATCGCTTCCCATTGCAGGTAATGCATCTCTCCGGAGTCACCTAGTGCAG | 8780 fluorescence intensity (a.u.)
TTACAATAGCGACACCGTTTTTAAAACACAACTTTGACTTCGGAGTCACCTAGTGCAG | 8540 fluorescence intensity (a.u.)
ATGATTTGTTTGATAATGCCCTCTGTTATTAAGGATGATTCGGAGTCACCTAGTGCAG | 8090 fluorescence intensity (a.u.)
CCGCTGTGGAGTTTTTTACCATTCGTAATTTCTCGTATTTCGGAGTCACCTAGTGCAG | 9160 fluorescence intensity (a.u.)
CCGCAGCATGTTTATCCTCTACCTATTCCATTTGTAGGTGCGGAGTCACCTAGTGCAG | 8200 fluorescence intensity (a.u.)
GGACTTCTTTTTTGTTTTTTTACTGATGAAACTTTTTTTTCGGAGTCACCTAGTGCAG | 12300 fluorescence intensity (a.u.)
GGTTTGTTTGTCGTTCATGTGACGAGCGCATCCGTTTTCCCGGAGTCACCTAGTGCAG | 9140 fluorescence intensity (a.u.)
ACAACTACGCGTCGTTTTCTTTATTATTTATTCGTGTATACGGAGTCACCTAGTGCAG | 8420 fluorescence intensity (a.u.)
GATCATTACTATATTTTCCCTGTATTTATAATTCTATGTTCGGAGTCACCTAGTGCAG | 8910 fluorescence intensity (a.u.)
GTATAAAAATCCTTGTCTCCATCTCTTTTACCTTAATCTCCGGAGTCACCTAGTGCAG | 8520 fluorescence intensity (a.u.)
TAGATGATGCTGTTAACTTTTTCTCACATGTTTGACCATTCGGAGTCACCTAGTGCAG | 12700 fluorescence intensity (a.u.)
GAGTCCTTATTCCCAAACCTGTACTTTCCTAGGCCAATGACGGAGTCACCTAGTGCAG | 8580 fluorescence intensity (a.u.)
CCGCCCAGCCATATGCAGTTGTTCGTACCCGTAATTAACCCGGAGTCACCTAGTGCAG | 8930 fluorescence intensity (a.u.)
